Measurements from patent US20120276102A1.
No constants are given. Whether binding was seen depends on the method and setting. Some results given as binding are weak or reduced against the parent protein; the word gives no strength.

By UniProt entry, the sequences of proteins in these tests, tags left out. Where a name states a change or a piece, a line headed by the entry shows the natural chain unless it says otherwise. Chains listed by the source or under a name are the forms on record and can include a tag or linker.
UniProt Q9HBE5: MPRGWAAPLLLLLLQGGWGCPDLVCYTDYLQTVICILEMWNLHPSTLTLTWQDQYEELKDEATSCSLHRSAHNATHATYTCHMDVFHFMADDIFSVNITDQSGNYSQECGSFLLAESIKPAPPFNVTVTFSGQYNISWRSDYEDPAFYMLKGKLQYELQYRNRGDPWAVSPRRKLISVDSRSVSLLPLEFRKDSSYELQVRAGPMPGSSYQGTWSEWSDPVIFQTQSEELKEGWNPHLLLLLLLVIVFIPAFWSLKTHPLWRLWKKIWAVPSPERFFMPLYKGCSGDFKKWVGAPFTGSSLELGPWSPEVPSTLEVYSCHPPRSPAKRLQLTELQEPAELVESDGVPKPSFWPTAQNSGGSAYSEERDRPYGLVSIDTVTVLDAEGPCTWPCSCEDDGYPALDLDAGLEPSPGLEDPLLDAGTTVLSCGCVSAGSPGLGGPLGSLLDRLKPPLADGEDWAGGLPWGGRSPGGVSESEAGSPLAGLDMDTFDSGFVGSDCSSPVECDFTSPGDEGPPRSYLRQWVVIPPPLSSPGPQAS
cynomolgus monkey IL-21R expressed on cells (G7Q0S8, form named): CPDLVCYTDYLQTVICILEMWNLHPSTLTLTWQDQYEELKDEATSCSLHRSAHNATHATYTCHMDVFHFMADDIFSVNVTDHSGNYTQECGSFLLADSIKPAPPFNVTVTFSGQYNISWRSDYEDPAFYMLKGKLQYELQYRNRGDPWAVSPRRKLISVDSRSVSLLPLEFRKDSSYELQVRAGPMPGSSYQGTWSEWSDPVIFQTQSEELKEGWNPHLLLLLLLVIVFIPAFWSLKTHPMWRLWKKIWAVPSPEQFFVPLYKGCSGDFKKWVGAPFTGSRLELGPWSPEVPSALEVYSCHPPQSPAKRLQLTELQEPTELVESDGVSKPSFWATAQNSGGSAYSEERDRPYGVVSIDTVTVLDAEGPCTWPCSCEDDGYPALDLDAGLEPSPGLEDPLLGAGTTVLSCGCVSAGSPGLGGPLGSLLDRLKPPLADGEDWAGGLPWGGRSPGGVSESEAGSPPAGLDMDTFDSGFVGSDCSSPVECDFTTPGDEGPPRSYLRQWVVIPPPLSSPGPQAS
cynomolgus monkey IL-21R-His/FLAG (G7Q0S8, form named): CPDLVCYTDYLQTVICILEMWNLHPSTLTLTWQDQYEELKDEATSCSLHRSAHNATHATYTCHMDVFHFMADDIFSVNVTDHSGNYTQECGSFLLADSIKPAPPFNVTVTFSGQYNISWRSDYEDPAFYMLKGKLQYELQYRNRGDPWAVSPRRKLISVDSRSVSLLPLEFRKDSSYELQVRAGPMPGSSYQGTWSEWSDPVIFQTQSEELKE
UniProt Q9JHX3: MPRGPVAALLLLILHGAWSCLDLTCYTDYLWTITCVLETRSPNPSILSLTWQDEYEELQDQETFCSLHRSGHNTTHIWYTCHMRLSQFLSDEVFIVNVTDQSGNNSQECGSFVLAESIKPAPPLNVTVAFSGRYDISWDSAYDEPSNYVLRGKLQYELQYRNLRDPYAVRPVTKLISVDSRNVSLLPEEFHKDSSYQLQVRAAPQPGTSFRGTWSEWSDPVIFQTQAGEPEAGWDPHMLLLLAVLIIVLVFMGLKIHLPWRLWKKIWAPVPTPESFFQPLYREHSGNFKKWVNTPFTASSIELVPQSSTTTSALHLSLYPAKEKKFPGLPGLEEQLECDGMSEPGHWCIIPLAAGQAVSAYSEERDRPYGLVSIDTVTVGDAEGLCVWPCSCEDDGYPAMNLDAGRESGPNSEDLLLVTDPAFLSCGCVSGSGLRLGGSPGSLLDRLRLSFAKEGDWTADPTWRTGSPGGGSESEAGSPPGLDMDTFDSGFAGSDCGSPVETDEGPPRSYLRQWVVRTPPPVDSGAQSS

Legend:
[1] = biological target: human IL-21R extracellular domain His-Flag fusion protein (human) (UniProt Q9HBE5); experiment: BIACORE: antibody captured on anti-human IgG; 0-100 nM human IL-21R-H/F injected
[2] = biological target: cynomolgus monkey IL-21R expressed on cells (cynomolgus monkey) (UniProt G7Q0S8); experiment: cell-based ELISA on CHO cells transiently expressing cynomolgus monkey IL-21R; HRP anti-human IgG, A450
[3] = biological target: human IL-21R expressed on cells (human) (UniProt Q9HBE5); experiment: cell ELISA, CHO cells
[4] = biological target: cynomolgus monkey IL-21R expressed on cells (cynomolgus monkey) (UniProt G7Q0S8); experiment: cell ELISA, CHO cells
[5] = biological target: human IL-21R expressed on cells (human) (UniProt Q9HBE5); experiment: cell-based ELISA on CHO cells transiently expressing human IL-21R; HRP anti-human IgG, A450
[6] = biological target: murine IL-21R extracellular domain His-Flag fusion protein (murine) (UniProt Q9JHX3); experiment: SPR, Ab captured, 50 nM analyte
[7] = biological target: murine IL-21R extracellular domain His-Flag fusion protein (murine) (UniProt Q9JHX3); experiment: BIACORE: antibody captured on anti-human IgG; 50 nM murine IL-21R-H/F injected
[8] = biological target: murine IL-21R extracellular domain His-Flag fusion protein (murine) (UniProt Q9JHX3); experiment: BIACORE: antibody captured on anti-human IgG; 10-500 nM murine IL-21R-H/F injected
[9] = biological target: murine IL-21R extracellular domain His-Flag fusion protein (murine) (UniProt Q9JHX3); experiment: SPR, antibody immobilized, 100 nM receptor
[10] = biological target: murine IL-21R extracellular domain His-Flag fusion protein (murine) (UniProt Q9JHX3); experiment: BIACORE: AbS immobilized on the chip; murine IL-21R-H/F (100 nM) flowed over
[11] = biological target: murine IL-21R-Fc (murine) (UniProt Q9JHX3); experiment: ELISA on mIL-21R-Fc captured by anti-mouse IgG2a, AbS added together with a fixed amount of mIL-21, AbS detected with anti-human Ig
[12] = biological target: murine IL-21R-Fc (murine) (UniProt Q9JHX3); experiment: blocking ELISA: rising AbS with a fixed amount of mIL-21 (the blocked ligand) on mIL-21R-Fc captured by anti-mouse IgG2a, mIL-21 detected with HRP anti-His6
[13] = biological target: human IL-21R extracellular domain His-Flag fusion protein (human) (UniProt Q9HBE5); experiment: BIACORE: antibody captured on anti-human IgG; varying concentrations of human IL-21R-His/FLAG injected
[14] = biological target: cynomolgus monkey IL-21R-His/FLAG (cynomolgus monkey) (UniProt G7Q0S8); experiment: SPR, Ab captured on anti-human IgG
[15] = biological target: human IL-21R extracellular domain His-Flag fusion protein (human) (UniProt Q9HBE5); experiment: SPR, Ab captured on anti-human IgG
[16] = biological target: human IL-21R extracellular domain His-Flag fusion protein (human) (UniProt Q9HBE5); experiment: SPR, antibody immobilized
[17] = biological target: murine IL-21R-Fc (murine) (UniProt Q9JHX3); experiment: ELISA on mIL-21R-Fc captured by anti-mouse IgG2a; AbS detected with anti-human Ig antibody, in the presence of mIL-21
[18] = biological target: cynomolgus monkey IL-21R-His/FLAG (cynomolgus monkey) (UniProt G7Q0S8); experiment: BIACORE: antibody captured on anti-human IgG; varying concentrations of cynomolgus monkey IL-21R-His/FLAG injected
[19] = biological target: human IL-21R extracellular domain His-Flag fusion protein (human) (UniProt Q9HBE5); experiment: BIACORE: AbT immobilized on the chip (as printed on the sheet); human IL-21R-H/F flowed over
[20] = biological target: murine IL-21R extracellular domain His-Flag fusion protein (murine) (UniProt Q9JHX3); experiment: ELISA: biotinylated mIL-21R-His/FLAG captured on plate-bound AbT, vehicle instead of mIL-21, HRP-streptavidin, A450

Measured: binding

B1: AbR (antibody, human IgG1, V domains shown)
VH: QVQLQESGPGLVKPSETLSLTCAVSGYSISSGYYWGWIRQPPGKGLEWIGSISHTGNTYYNPPLKSRVTISVDTSKNQFSLKLSSVTAADTAVYYCARFMGFGRPEYWGQGTLVTVSS
VL: SSELTQDPAVSVALGQTVRITCQGDSLRTYYASWYQQKPGQAPVLVIYGKHKRPSGIPDRFSGSSSGNTASLTITGAQAEDEADYYCVTRSVKGNPHVLFGGGTQLTVL
binds: [1] | [2] | [3] | [4] | [5] | [6] | [7] | [8]

B2: AbQ (antibody, human IgG1, V domains shown)
VH: QVQLQESGPGLVKPSETLSLTCAVSGYSISSGYYWGWIRQPPGKGLEWIGSISHTGNTYYNPPLKSRVTISVDTSKNQFSLKLSSVTAADTAVYYCARFMGFGRPEYWGQGTLVTVSS
VL: SSELTQDPAVSVALGQTVRITCQGDSLRTYYASWYQQKPGQAPVLVIYGKHKRPSGIPDRFSGSSSGNTASLTITGAQAEDEADYYCVARSVVGNPHVLFGGGTQLTVL
binds: [1] | [2] | [3] | [4] | [5] | [6] | [7] | [8]

B3: parental 18A5 antibody (antibody, V domains shown)
VH: QVQLQESGPGLVKTSETLSLTCAVSGYSISSGYYWGWIRQPPGKGLEWIGSISHTGNTYYNPPLKSRVTISVDTSKNQFSLKLSSVTAADTAVYYCARGGGISRPEYWGKGTLVTVSS
VL: SSELTQDPPVSVALGQTVTLTCQGDSLRTYYASWYQQKSGQAPILLLYGKHKRPSGIPDRFSGSTSGDTASLTITGAQAEDEADYYCNSRDSSGNPHVLFGGGTQLTVL
binds: [1] | [2] | [5] | [9] | [6] | [8]

B4: AbO (antibody, human IgG1, V domains shown)
VH: QVQLQESGPGLVKPSETLSLTCAVSGYSISSGYYWGWIRQPPGKGLEWIGSISHTGNTYYNPPLKSRVTISVDTSKNQFSLKLSSVTAADTAVYYCARGGGISRPEYWGQGTLVTVSS
VL: SSELTQDPAVSVALGQTVRITCQGDSLRTYYASWYQQKPGQAPVLVIYGKHKRPSGIPDRFSGSSSGNTASLTITGAQAEDEADYYCVTRSAKGNPHVLFGGGTQLTVL
binds: [1] | [2] | [3] | [4] | [5] | [6] | [7] | [8]

B5: AbP (antibody, human IgG1, V domains shown)
VH: QVQLQESGPGLVKPSETLSLTCAVSGYSISSGYYWGWIRQPPGKGLEWIGSISHTGNTYYNPPLKSRVTISVDTSKNQFSLKLSSVTAADTAVYYCARGGGISRPEYWGQGTLVTVSS
VL: SSELTQDPAVSVALGQTVRITCQGDSLRTYYASWYQQKPGQAPVLVIYGKHKRPSGIPDRFSGSSSGNTASLTITGAQAEDEADYYCVSRSAKGNPHVLFGGGTQLTVL
binds: [1] | [2] | [3] | [4] | [5] | [6] | [7] | [8]

B6: AbU (antibody, human IgG1, V domains shown)
VH: QVQLQESGPGLVKPSETLSLTCAVSGYSISSGYYWGWIRQPPGKGLEWIGSISHTGNTYYNPPLKSRVTISVDTSKNQFSLKLSSVTAADTAVYYCARGGGISRPEYWGQGTLVTVSS
VL: SSELTQDPAVSVALGQTVRITCQGDSLRTYYASWYQQKPGQAPVLVIYGKHKRPSGIPDRFSGSSSGNTASLTITGAQAEDEADYYCTTRSNKGNPHVLFGGGTQLTVL
binds: [1] | [2] | [3] | [4] | [5] | [6] | [7] | [8]

B7: AbS (antibody, V domains shown)
VH: QVQLQESGPGLVKPSETLSLTCAVSGYSISSGYYWGWIRQPPGKGLEWIGSISHTGNTYYNPPLKSRVTISVDTSKNQFSLKLSSVTAADTAVYYCARGGGISRPEYWGQGTLVTVSS
VL: SSELTQDPAVSVALGQTVRITCQGDSLRTYYASWYQQKPGQAPVLVIYGKHKRPSGIPDRFSGSSSGNTASLTITGAQAEDEADYYCMSRSIWGNPHVLFGGGTQLTVL
binds: [1] | [10] | [2] | [11] | [3] | [4] | [5] | [12] | [13] | [9] | [14] | [15] | [6] | [16] | [17] | [18] | [7] | [8]

B8: AbT (antibody, human IgG1, V domains shown)
VH: QVQLQESGPGLVKPSETLSLTCAVSGYSISSGYYWGWIRQPPGKGLEWIGSISHTGNTYYNPPLKSRVTISVDTSKNQFSLKLSSVTAADTAVYYCARGGGISRPEYWGQGTLVTVSS
VL: SSELTQDPAVSVALGQTVRITCQGDSLRTYYASWYQQKPGQAPVLVIYGKHKRPSGIPDRFSGSSSGNTASLTITGAQAEDEADYYCVARSNKGNPHVLFGGGTQLTVL
binds: [1] | [2] | [19] | [3] | [4] | [5] | [13] | [9] | [20] | [14] | [15] | [6] | [16] | [18] | [7] | [8]
